Assay results as given in patent US10865191B2, “Heterocyclic compounds useful as modulators of TNF alpha” (BRISTOL-MYERS SQUIBB COMPANY, priority 2015, dated 2020).
Some results were stated once for a whole list of compounds, not compound by compound.

Amino acid sequences for entries named in this document (tags omitted). Residues count along the entry.
UniProt P01375, 77-233 limits assumed: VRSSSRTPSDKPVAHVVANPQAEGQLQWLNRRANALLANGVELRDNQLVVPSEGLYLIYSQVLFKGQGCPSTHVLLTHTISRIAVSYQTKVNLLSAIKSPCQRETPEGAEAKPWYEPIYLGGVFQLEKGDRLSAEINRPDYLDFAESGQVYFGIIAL

Biological target: TNFα (Homo sapiens, UniProt P01375)
Experiment: TNF induced HEK-Blue assay (NF-kB-driven secreted alkaline phosphatase reporter)
Assay type: cell-based
Details: TNFα 0.5 ng/mL, HEK-Blue-CD40L cells, 18 h; read-out: IC50 values measured in the TNF induced HEK-Blue assay
Procedure, shortened: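 HEK-Blue-CD40L cells (NF-kB-driven SEAP reporter), 20,000/well, added after 30 min pre-incubation of compound (0.004–25 μM final) with TNFα 0.5 ng/mL final at 37 °C; 18 h incubation. SEAP read with QUANTI-Blue at 620 nm; IC50 from 4-parameter logistic fit, normalized to unstimulated and stimulated DMSO controls.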

SMILES	IC50 [µM]
CC[C@@H](Nc1c(Cl)cnc2ccccc12)c1cc(-c2cncnc2)ccc1F [Example 558, (R)-3-chloro-N-(1-(2-fluoro-5-(pyrimidin-5-yl)phenyl)propyl)quinolin-4-amine]	≤ 25
Cc1ccc(C)c(Nc2c(Cl)c(C)nc3ccc(-c4ccc(C(=O)NCCCCN)nc4)cc23)c1 [Example 65, N-(4-aminobutyl)-5-(3-chloro-4-((2,5-dimethylphenyl)amino)-2-methylquinolin-6-yl) picolinamide]	≤ 25
